We go through 36 targets from the supplement of paper PMC12067093, “Discovery and optimisation of a covalent ligand for TRIM25 and its application to targeted protein ubiquitination” (Chemical Science, 2025).

Sequences of proteins named here, by UniProt entry; tags and fusion partners are left off. A change or cut given only in a name is not applied to a line headed by its entry.
UniProt Q9UJW0, whole entry, looked up: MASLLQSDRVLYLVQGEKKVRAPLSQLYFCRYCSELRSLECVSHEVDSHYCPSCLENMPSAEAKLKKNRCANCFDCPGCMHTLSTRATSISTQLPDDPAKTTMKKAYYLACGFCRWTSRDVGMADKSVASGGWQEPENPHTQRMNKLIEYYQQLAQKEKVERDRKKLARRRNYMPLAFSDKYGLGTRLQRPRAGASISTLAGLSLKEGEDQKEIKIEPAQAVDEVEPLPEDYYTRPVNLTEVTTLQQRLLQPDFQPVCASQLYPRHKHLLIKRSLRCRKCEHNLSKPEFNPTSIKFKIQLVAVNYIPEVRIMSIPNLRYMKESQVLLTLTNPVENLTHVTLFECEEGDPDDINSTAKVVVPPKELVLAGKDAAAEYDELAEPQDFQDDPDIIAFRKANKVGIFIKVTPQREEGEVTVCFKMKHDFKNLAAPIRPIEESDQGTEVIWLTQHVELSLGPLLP
UniProt Q5QP82: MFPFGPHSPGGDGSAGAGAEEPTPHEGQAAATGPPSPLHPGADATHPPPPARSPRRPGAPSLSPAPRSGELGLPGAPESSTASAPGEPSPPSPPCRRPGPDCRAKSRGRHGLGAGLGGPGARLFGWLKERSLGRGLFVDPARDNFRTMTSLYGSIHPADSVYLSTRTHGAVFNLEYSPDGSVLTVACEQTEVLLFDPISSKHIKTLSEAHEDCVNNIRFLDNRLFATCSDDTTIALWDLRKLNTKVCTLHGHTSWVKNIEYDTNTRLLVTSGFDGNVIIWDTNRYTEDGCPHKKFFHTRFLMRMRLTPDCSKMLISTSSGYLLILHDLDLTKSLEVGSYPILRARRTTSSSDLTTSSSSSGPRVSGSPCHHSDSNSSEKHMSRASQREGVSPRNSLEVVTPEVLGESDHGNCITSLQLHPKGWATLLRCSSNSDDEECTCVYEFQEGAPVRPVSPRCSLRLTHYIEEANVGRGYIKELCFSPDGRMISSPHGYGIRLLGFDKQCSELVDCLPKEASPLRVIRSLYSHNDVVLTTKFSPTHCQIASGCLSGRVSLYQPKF
UniProt Q8TB03: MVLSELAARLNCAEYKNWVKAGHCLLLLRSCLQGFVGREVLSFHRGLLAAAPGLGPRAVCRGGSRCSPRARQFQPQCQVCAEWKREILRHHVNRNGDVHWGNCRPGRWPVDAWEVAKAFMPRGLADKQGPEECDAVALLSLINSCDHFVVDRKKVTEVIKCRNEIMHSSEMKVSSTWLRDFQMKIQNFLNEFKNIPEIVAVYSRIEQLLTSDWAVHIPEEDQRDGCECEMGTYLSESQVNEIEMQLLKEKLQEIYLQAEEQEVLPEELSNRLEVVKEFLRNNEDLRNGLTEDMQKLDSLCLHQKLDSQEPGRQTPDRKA
UniProt Q14203, whole entry, looked up: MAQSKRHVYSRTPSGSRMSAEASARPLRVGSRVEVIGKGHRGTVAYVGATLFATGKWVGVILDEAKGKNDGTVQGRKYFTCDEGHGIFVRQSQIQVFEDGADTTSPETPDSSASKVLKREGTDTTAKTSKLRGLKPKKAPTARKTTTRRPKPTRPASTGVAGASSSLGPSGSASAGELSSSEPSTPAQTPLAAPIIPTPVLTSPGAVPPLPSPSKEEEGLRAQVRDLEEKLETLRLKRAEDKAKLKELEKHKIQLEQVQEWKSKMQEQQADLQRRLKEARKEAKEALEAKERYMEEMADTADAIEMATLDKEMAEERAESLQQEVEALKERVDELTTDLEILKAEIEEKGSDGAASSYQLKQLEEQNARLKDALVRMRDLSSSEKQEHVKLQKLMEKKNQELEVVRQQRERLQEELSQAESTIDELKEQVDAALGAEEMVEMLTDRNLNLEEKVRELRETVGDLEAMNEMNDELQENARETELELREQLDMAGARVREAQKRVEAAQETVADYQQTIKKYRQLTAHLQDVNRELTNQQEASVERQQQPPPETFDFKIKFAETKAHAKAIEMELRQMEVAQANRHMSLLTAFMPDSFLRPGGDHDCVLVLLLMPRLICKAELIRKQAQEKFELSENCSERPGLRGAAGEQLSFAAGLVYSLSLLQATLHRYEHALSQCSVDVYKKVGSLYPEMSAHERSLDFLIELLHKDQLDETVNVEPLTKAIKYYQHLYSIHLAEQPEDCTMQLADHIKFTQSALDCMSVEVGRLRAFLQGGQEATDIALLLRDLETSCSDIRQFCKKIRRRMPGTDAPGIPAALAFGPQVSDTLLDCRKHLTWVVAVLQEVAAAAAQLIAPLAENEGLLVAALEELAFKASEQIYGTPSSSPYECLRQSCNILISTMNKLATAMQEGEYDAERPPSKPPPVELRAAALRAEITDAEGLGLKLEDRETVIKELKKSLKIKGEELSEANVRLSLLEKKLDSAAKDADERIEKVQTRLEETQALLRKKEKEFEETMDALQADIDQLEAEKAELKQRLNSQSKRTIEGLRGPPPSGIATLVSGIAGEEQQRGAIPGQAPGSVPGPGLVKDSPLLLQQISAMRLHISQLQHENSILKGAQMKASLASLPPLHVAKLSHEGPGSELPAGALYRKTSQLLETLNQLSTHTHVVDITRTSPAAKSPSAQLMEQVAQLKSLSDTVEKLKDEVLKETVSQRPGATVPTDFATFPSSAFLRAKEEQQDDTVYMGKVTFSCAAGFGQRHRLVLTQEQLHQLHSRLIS
UniProt Q5VWQ8: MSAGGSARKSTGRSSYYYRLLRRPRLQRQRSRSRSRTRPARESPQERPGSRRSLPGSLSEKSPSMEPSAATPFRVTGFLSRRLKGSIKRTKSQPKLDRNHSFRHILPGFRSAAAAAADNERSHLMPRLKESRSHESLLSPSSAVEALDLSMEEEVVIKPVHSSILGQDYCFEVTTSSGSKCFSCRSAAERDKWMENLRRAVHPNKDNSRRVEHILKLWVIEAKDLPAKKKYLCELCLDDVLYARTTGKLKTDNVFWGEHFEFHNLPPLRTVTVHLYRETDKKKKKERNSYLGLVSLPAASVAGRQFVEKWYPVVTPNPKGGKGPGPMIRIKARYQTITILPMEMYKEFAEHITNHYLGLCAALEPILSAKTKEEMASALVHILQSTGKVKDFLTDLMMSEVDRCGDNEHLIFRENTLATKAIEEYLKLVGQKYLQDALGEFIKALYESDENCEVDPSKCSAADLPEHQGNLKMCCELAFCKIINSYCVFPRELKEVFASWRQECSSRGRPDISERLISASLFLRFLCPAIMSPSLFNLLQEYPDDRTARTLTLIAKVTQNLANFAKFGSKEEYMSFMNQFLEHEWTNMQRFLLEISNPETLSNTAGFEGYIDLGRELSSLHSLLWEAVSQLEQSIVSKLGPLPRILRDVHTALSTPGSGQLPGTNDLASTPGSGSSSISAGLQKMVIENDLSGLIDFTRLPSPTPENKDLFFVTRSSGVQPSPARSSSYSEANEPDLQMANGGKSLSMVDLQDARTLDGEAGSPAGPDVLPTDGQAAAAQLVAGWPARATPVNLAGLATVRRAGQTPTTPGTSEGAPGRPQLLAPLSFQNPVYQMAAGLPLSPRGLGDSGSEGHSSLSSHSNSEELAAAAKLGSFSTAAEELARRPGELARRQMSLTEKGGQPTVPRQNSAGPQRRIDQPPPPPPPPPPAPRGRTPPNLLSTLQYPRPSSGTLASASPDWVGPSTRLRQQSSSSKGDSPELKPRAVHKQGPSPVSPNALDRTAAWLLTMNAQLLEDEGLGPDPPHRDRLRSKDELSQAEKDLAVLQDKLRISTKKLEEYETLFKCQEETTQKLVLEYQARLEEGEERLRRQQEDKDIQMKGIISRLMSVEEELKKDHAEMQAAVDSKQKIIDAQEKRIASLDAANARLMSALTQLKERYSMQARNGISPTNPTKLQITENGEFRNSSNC
UniProt Q13617, whole entry, looked up: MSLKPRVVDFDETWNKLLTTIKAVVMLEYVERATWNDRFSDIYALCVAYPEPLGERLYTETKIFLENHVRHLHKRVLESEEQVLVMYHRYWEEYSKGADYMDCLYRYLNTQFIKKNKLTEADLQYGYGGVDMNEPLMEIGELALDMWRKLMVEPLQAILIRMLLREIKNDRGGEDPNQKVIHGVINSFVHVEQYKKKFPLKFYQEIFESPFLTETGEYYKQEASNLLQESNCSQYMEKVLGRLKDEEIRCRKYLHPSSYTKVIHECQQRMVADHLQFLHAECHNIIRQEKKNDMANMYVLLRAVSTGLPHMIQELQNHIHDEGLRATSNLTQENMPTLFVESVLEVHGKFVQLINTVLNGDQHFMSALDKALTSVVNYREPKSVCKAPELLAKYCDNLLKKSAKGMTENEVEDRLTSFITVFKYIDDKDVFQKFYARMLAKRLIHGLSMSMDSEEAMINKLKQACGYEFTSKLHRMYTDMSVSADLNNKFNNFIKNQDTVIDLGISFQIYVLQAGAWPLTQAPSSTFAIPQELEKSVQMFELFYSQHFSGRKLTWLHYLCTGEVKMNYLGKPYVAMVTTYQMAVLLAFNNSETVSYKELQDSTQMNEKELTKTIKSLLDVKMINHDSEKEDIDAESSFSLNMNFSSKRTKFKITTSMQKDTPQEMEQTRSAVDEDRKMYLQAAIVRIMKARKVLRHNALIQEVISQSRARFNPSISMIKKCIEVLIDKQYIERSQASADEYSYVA
UniProt Q9UJU6: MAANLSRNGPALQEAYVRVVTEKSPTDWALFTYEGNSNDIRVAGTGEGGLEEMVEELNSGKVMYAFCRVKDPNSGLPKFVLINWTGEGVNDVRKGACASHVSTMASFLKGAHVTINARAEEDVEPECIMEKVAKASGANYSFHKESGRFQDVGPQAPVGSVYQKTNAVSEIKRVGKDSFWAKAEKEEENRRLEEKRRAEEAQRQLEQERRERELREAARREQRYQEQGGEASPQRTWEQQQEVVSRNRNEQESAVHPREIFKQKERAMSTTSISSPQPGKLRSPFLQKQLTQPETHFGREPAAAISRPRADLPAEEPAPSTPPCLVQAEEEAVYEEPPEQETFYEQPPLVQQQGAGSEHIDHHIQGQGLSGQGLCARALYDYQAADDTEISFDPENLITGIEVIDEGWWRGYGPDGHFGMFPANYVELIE
UniProt Q9Y4B6: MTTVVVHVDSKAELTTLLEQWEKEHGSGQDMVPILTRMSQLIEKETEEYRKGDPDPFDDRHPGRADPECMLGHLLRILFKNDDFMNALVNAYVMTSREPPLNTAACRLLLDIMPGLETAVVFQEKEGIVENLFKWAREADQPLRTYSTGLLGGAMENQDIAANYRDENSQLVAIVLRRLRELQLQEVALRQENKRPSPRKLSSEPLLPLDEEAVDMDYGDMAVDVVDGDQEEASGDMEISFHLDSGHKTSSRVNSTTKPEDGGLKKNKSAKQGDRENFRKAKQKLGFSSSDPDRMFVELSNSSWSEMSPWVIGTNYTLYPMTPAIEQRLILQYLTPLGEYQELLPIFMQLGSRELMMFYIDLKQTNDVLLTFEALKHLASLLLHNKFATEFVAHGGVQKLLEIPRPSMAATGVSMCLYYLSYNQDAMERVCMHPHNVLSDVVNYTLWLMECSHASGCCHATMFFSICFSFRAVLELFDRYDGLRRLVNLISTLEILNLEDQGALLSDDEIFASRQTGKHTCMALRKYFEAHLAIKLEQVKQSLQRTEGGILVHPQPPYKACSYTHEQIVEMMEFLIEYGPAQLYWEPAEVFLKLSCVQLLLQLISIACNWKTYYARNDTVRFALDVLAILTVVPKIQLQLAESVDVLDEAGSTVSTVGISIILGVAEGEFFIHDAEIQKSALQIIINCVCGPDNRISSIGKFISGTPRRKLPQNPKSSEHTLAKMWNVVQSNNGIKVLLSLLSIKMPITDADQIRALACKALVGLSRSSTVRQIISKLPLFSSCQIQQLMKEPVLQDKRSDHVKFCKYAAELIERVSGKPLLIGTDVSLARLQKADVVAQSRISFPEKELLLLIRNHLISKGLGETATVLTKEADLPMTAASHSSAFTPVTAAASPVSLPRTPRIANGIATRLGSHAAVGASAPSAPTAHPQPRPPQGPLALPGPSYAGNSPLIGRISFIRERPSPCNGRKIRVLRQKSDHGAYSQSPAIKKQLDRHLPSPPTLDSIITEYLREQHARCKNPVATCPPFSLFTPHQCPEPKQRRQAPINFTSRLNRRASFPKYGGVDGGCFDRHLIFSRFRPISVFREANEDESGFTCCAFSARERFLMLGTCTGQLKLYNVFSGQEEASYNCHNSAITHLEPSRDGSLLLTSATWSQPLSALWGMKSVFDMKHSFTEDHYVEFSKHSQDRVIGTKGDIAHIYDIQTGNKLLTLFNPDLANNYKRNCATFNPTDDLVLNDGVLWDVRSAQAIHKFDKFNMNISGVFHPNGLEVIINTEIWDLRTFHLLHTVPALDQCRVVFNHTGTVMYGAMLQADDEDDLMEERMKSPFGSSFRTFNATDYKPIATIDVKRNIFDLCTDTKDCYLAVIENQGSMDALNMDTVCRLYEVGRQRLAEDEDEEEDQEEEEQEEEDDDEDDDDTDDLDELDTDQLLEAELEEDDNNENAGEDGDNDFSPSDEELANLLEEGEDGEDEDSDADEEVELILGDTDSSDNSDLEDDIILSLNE

The list shows a part of the results.
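Also: competitive profiling in live THP-1 cells: cysteine peptides tagged with an iodoacetamide desthiobiotin (IA-DTB) probe, intensity after compound treatment relative to DMSO-treated cells.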

Compound in one experiment: Cc1cc(ccc1-c1ccccc1)C(=O)N1CCCN(CC1)C(=O)CCl [compound 10]
The experiment is described as follows: probe-labelled cysteine peptide fold change vs DMSO (competition) (log2 fold change); higher = less target engagement (more negative = stronger competition). The settings on record: 10 µM; THP-1; incubation time: 4 h.
With “CUL4A_Q13619_379_DKVDHVIEVCFQK (UniProt Q13619)”, the “probe-labelled cysteine peptide fold change” value is -0.0194.

For the target “CTR9_Q6PD62_511_LYEAMCEFHEAEK (UniProt Q6PD62)”, the “probe-labelled cysteine peptide fold change” value is -0.016.

As for “DARS_P14868_130_IGSCTQQDVELHVQK (UniProt P14868)”, the “probe-labelled cysteine peptide fold change” value was -0.0128.

On to “DCTN4_Q9UJW0_70_CANCFDCPGCMHTLSTR (UniProt Q9UJW0)”, for which the “probe-labelled cysteine peptide fold change” value amounted to 0.128.

Turning to “DBR1_Q9UK59_139_GHFECPPYNSSTIR (UniProt Q9UK59)”, the “probe-labelled cysteine peptide fold change” value was 0.0872.

In the case of “CUL4B_Q13620_730_KLQWQSTLGHCVLK (UniProt Q13620)”, the “probe-labelled cysteine peptide fold change” value is 0.0433.

In the case of “DBR1_Q9UK59_37_RGPGPVDLLLCCGDFQAVR (UniProt Q9UK59)”, the “probe-labelled cysteine peptide fold change” value was 0.0219.

“CUL9_Q8IWT3_1725_CLPTEFCDALDR (UniProt Q8IWT3)”: the “probe-labelled cysteine peptide fold change” value was -0.147.

For the target “DCAF12_Q5T6F0_253_EDTNPDNCK (UniProt Q5T6F0)”, the “probe-labelled cysteine peptide fold change” value was -0.303.

As for “CXXC1_Q9P0U4_175_MCGECEACR (UniProt Q9P0U4)”, the “probe-labelled cysteine peptide fold change” value is -0.0641.

On to “DALRD3_Q5D0E6_66_FDDGQVPEHLLHALACLQGPGVAPVLR (UniProt Q5D0E6)”, for which the “probe-labelled cysteine peptide fold change” value was 0.315.

In the case of “DCAF10_Q5QP82_213_TLSEAHEDCVNNIR (UniProt Q5QP82)”, the “probe-labelled cysteine peptide fold change” value is -0.0454.

Regarding “DCUN1D4_Q92564_253_DQWCNVLEFSR (UniProt Q92564)”, the “probe-labelled cysteine peptide fold change” value is 0.0103.

Consider “CTSB_P07858_108_DQGSCGSCWAFGAVEAISDR (UniProt P07858)”, for which the “probe-labelled cysteine peptide fold change” value is -0.139.

For “CYTH2_Q99418_322_KPNCFELYIPNNK (UniProt Q99418)”, the “probe-labelled cysteine peptide fold change” value amounted to 0.0998.

For the target “CTSA_P10619_240_LWSSLQTHCCSQNK (UniProt P10619)”, the “probe-labelled cysteine peptide fold change” value worked out at 0.0306.

Consider “CUL9_Q8IWT3_76_AEHILMWLSAPEVYANCPGLLGER (UniProt Q8IWT3)”, for which the “probe-labelled cysteine peptide fold change” value is 0.0237.

With “CXorf38_Q8TB03_300_LDSLCLHQK (UniProt Q8TB03)”, the “probe-labelled cysteine peptide fold change” value is -0.0363.

With “CTSB_P07858_108_EIRDQGSCGSCWAFGAVEAISDR (UniProt P07858)”, the “probe-labelled cysteine peptide fold change” value was -0.117.

On to “CUL9_Q8IWT3_176_ETGALDLLMHMLCNPEPQIR (UniProt Q8IWT3)”, for which the “probe-labelled cysteine peptide fold change” value stood at 0.116.

For “DCTN1_Q14203_893_QSCNILISTMNK (UniProt Q14203)”, the “probe-labelled cysteine peptide fold change” value stood at 0.197.

Consider “DAP3_P51398_139_TLSLCHVIHFCAK (UniProt P51398)”, for which the “probe-labelled cysteine peptide fold change” value was -0.0146.

For “CUL4B_Q13620_810_FICNDDFK (UniProt Q13620)”, the “probe-labelled cysteine peptide fold change” value was -0.198.

As to “DAB2IP_Q5VWQ8_487_IINSYCVFPR (UniProt Q5VWQ8)”, the “probe-labelled cysteine peptide fold change” value was -0.0135.

In the case of “CUL2_Q13617_103_GADYMDCLYR (UniProt Q13617)”, the “probe-labelled cysteine peptide fold change” value is 0.162.

Regarding “CXXC1_Q9P0U4_38_KPDINCFMIGCDNCNEWFHGDCIR (UniProt Q9P0U4)”, the “probe-labelled cysteine peptide fold change” value came out at 0.0402.

On to “DBNL_Q9UJU6-3_256_NEQGSTCASLQESAVHPR (UniProt Q9UJU6)”, for which the “probe-labelled cysteine peptide fold change” value was -0.341.

As to CTSZ_Q9UBR2_164_DQECDK (UniProt Q9UBR2), the “probe-labelled cysteine peptide fold change” value is -0.0913.

With “DCLRE1C_Q96SD1_333_DFLSYLCPVNAYPNVIPVGTTMDK (UniProt Q96SD1)”, the “probe-labelled cysteine peptide fold change” value stood at 0.118.

On to “DCAF12_Q5T6F0_141_DREPGGVTQQGCGIHAIELNPSR (UniProt Q5T6F0)”, for which the “probe-labelled cysteine peptide fold change” value is -0.144.

Turning to “CWC22_Q9HCG8_497_ELCNMILDCCAQQR (UniProt Q9HCG8)”, the “probe-labelled cysteine peptide fold change” value came out at 0.0134.

As for “CUL4A_Q13619_289_RLEEEGDRVITYLDHSTQKPLIACVEK (UniProt Q13619)”, the “probe-labelled cysteine peptide fold change” value was -0.276.

Turning to “DCAF5_Q96JK2_812_ASGSTLNSGSGNCPR (UniProt Q96JK2)”, the “probe-labelled cysteine peptide fold change” value is -0.357.

Regarding “DCPS_Q96C86_37_EAGVGNGTCAPVRLPFSGFR (UniProt Q96C86)”, the “probe-labelled cysteine peptide fold change” value is -0.385.

On to “CWF19L1_Q69YN2_288_QILAPVEESACQFFFDLNEK (UniProt Q69YN2)”, for which the “probe-labelled cysteine peptide fold change” value is 0.257.

As for “DCAF1_Q9Y4B6_1070_YGGVDGGCFDR (UniProt Q9Y4B6)”, the “probe-labelled cysteine peptide fold change” value is 0.00316.

The experiment is the same for the next values; noted with them: 50 µM; THP-1; incubation time: 4 h.
For “CUL4A_Q13619_379_DKVDHVIEVCFQK (UniProt Q13619)”, the “probe-labelled cysteine peptide fold change” value amounted to 0.428.

On to “CTR9_Q6PD62_511_LYEAMCEFHEAEK (UniProt Q6PD62)”, for which the “probe-labelled cysteine peptide fold change” value is 0.0888.

Turning to “DARS_P14868_130_IGSCTQQDVELHVQK (UniProt P14868)”, the “probe-labelled cysteine peptide fold change” value was determined as 0.0502.

In the case of “DCTN4_Q9UJW0_70_CANCFDCPGCMHTLSTR (UniProt Q9UJW0)”, the “probe-labelled cysteine peptide fold change” value is 0.00716.

Turning to “DBR1_Q9UK59_139_GHFECPPYNSSTIR (UniProt Q9UK59)”, the “probe-labelled cysteine peptide fold change” value came out at 0.148.

As to “CUL4B_Q13620_730_KLQWQSTLGHCVLK (UniProt Q13620)”, the “probe-labelled cysteine peptide fold change” value amounted to 0.161.

As for “DBR1_Q9UK59_37_RGPGPVDLLLCCGDFQAVR (UniProt Q9UK59)”, the “probe-labelled cysteine peptide fold change” value was -0.195.

Consider “CUL9_Q8IWT3_1725_CLPTEFCDALDR (UniProt Q8IWT3)”, for which the “probe-labelled cysteine peptide fold change” value was -0.209.

“DCAF12_Q5T6F0_253_EDTNPDNCK (UniProt Q5T6F0)”: the “probe-labelled cysteine peptide fold change” value is -0.538.

As to “CXXC1_Q9P0U4_175_MCGECEACR (UniProt Q9P0U4)”, the “probe-labelled cysteine peptide fold change” value was -0.126.

On to “DALRD3_Q5D0E6_66_FDDGQVPEHLLHALACLQGPGVAPVLR (UniProt Q5D0E6)”, for which the “probe-labelled cysteine peptide fold change” value is -0.0543.

In the case of “DCAF10_Q5QP82_213_TLSEAHEDCVNNIR (UniProt Q5QP82)”, the “probe-labelled cysteine peptide fold change” value was -0.222.

On to “DCUN1D4_Q92564_253_DQWCNVLEFSR (UniProt Q92564)”, for which the “probe-labelled cysteine peptide fold change” value was 0.038.

Turning to “CTSB_P07858_108_DQGSCGSCWAFGAVEAISDR (UniProt P07858)”, the “probe-labelled cysteine peptide fold change” value is -0.322.

With “CYTH2_Q99418_322_KPNCFELYIPNNK (UniProt Q99418)”, the “probe-labelled cysteine peptide fold change” value was 0.448.

Consider “CTSA_P10619_240_LWSSLQTHCCSQNK (UniProt P10619)”, for which the “probe-labelled cysteine peptide fold change” value was found to be 0.215.

“CUL9_Q8IWT3_76_AEHILMWLSAPEVYANCPGLLGER (UniProt Q8IWT3)”: the “probe-labelled cysteine peptide fold change” value is -0.0123.

Regarding “CXorf38_Q8TB03_300_LDSLCLHQK (UniProt Q8TB03)”, the “probe-labelled cysteine peptide fold change” value is -0.25.

“CTSB_P07858_108_EIRDQGSCGSCWAFGAVEAISDR (UniProt P07858)”: the “probe-labelled cysteine peptide fold change” value was -0.328.

With “CUL9_Q8IWT3_176_ETGALDLLMHMLCNPEPQIR (UniProt Q8IWT3)”, the “probe-labelled cysteine peptide fold change” value was -0.219.

For “DCTN1_Q14203_893_QSCNILISTMNK (UniProt Q14203)”, the “probe-labelled cysteine peptide fold change” value was -0.00944.

For “DAP3_P51398_139_TLSLCHVIHFCAK (UniProt P51398)”, the “probe-labelled cysteine peptide fold change” value is -0.0743.

As for “CUL4B_Q13620_810_FICNDDFK (UniProt Q13620)”, the “probe-labelled cysteine peptide fold change” value is -0.0209.

For “DAB2IP_Q5VWQ8_487_IINSYCVFPR (UniProt Q5VWQ8)”, the “probe-labelled cysteine peptide fold change” value was -0.164.

On to “CUL2_Q13617_103_GADYMDCLYR (UniProt Q13617)”, for which the “probe-labelled cysteine peptide fold change” value turned out to be 0.199.

As for “CXXC1_Q9P0U4_38_KPDINCFMIGCDNCNEWFHGDCIR (UniProt Q9P0U4)”, the “probe-labelled cysteine peptide fold change” value was -1.06.

On to “DBNL_Q9UJU6-3_256_NEQGSTCASLQESAVHPR (UniProt Q9UJU6)”, for which the “probe-labelled cysteine peptide fold change” value is -0.167.

Turning to CTSZ_Q9UBR2_164_DQECDK (UniProt Q9UBR2), the “probe-labelled cysteine peptide fold change” value was -0.207.

“DCLRE1C_Q96SD1_333_DFLSYLCPVNAYPNVIPVGTTMDK (UniProt Q96SD1)”: the “probe-labelled cysteine peptide fold change” value was -0.13.

For the target “DCAF12_Q5T6F0_141_DREPGGVTQQGCGIHAIELNPSR (UniProt Q5T6F0)”, the “probe-labelled cysteine peptide fold change” value was -0.282.

In the case of “CWC22_Q9HCG8_497_ELCNMILDCCAQQR (UniProt Q9HCG8)”, the “probe-labelled cysteine peptide fold change” value was -0.685.

For the target “CUL4A_Q13619_289_RLEEEGDRVITYLDHSTQKPLIACVEK (UniProt Q13619)”, the “probe-labelled cysteine peptide fold change” value was -0.439.

For the target “DCAF5_Q96JK2_812_ASGSTLNSGSGNCPR (UniProt Q96JK2)”, the “probe-labelled cysteine peptide fold change” value is -0.302.

On to “DCPS_Q96C86_37_EAGVGNGTCAPVRLPFSGFR (UniProt Q96C86)”, for which the “probe-labelled cysteine peptide fold change” value is -0.503.

With “CWF19L1_Q69YN2_288_QILAPVEESACQFFFDLNEK (UniProt Q69YN2)”, the “probe-labelled cysteine peptide fold change” value stood at 0.122.

With “DCAF1_Q9Y4B6_1070_YGGVDGGCFDR (UniProt Q9Y4B6)”, the “probe-labelled cysteine peptide fold change” value was -0.239.
